# For at least one compound, name, drawing or mass did not settle the structure.
# Test system: bleomycin-induced pulmonary fibrosis
# Conditions: mean±SD, Day 21, compared with Vehicle group
# Method: Materials and Methods Protocol to Examine the Effects of an anti-human CLDN1 Monoclonal Antibody in Preventing Fibrosis in a Bleomycin-Induced Pulmonary Fibrosis Model. Pathogen-free 6 weeks old female C57BL/6Jmice were obtained from Japan SLC, Inc. (Japan). At Day 0, 54 mice were induced to develop pulmonary fibrosis by a single intratracheal administration of bleomycin hydrochloride (BLM, Nippon Kayaku, Japan) in saline at a dose of 3.0 mg/kg, in a volume of 50 μL per animal using Microsprayer® (Penn-Century, USA). In each slot, the mice were randomized into 3 groups of 18 mice based on their body weight on the day before the start of treatment at Day 0. Individual body weights were measured daily during the experimental period. Survival, clinical signs and behaviour of mice were monitored daily.
# Mice groups. Group 1 (Vehicle): Eighteen bleomycin-induced pulmonary fibrosis model mice were intraperitoneally administered vehicle [Saline] in a volume of […] once weekly from Day 0 to 20. […] Group 3 (Dexamethasone): Eighteen bleomycin-induced pulmonary fibrosis model mice were orally administered pure water supplemented with Dexamethasone at a dose of 0.25 mg/kg (in a volume of 10 mL/kg) once daily from Day 0 to 20. Mice in all groups were sacrificed at Day 21.
# Survival, biochemical and histological analysis. […]
structure (smiles),measurement,value
C[C@@H]1C[C@H]2[C@@H]3CCC4=CC(=O)C=C[C@]4(C)[C@@]3(F)[C@@H](O)C[C@]2(C)[C@@]1(O)C(=O)CO [Dexamethasone],Ashcroft score,tended to decrease

# — patent US20230138047A1, “ANTI-CLAUDIN-1 MONOCLONAL ANTIBODIES FOR THE PREVENTION AND TREATMENT OF FIBROTIC DISEASES” (Université de Strasbourg, priority 2019, published 2023)
